Source: PMC5996148
“And” between values parts separate entries of the source, which are not always exact repeats. Equal values may be shown once. The list shows a part of the results.

Experiments:
Experiment in all cases: protein microarray (ProtoArray v5.0), streptavidin-Alexa Fluor 647
Details in all cases: 3'-biotin; 20 mM Tris (pH 7.5), 5 mM MgCl2, 100 mM KCl, 0.1% Tween-20, A/T-rich and random oligonucleotide blockers; temperature not stated; high values mean tight binding
PSME1 (human) = tested on: PSME1 (human)
PTCHD1 (human) = tested on: PTCHD1 (human)
PTGES2 (human) = tested on: PTGES2 (human)
PTK2B (human) = tested on: PTK2B (human)
PTMS (human) = tested on: PTMS (human)
PTPN1 (human) = tested on: PTPN1 (human)
PTPN2 (human) = tested on: PTPN2 (human)
PVALB (human) = tested on: PVALB (human)
PVRL3 (human) = tested on: PVRL3 (human)
PXN (human) = tested on: PXN (human)
PYCR1 (human) = tested on: PYCR1 (human)
Paladin (human) = tested on: Paladin (human)
[1] = tested on: Pantothenate kinase 1 (human)
[2] = tested on: Peptidyl-prolyl cis-trans isomerase-like 3 (human)
[3] = tested on: Peptidyl-tRNA hydrolase 2, mitochondrial (human)
[4] = tested on: Phosphatase and actin regulator 4 (human)
[5] = tested on: Phosphatidylinositol-3,4,5-trisphosphate 3-phosphatase and dual-specificity protein phosphatase PTEN (human)
[6] = tested on: Phosphoacetylglucosamine mutase (human)
[7] = tested on: Phosphoglucomutase-2 (human)
[8] = tested on: Phospholipase DDHD2 (human)

Sequence: GGGGACAGGGGTATGGGGAGGGG [G4-3 biotinylated (CtG)]
- binding signal (PSME1 (human)): -0.339 z-score
- binding signal (PTCHD1 (human)): -0.312 z-score
- binding signal (PTGES2 (human)): -0.345 z-score
- binding signal (PTK2B (human)): -0.331 z-score
- binding signal (PTMS (human)): -0.315 z-score
- binding signal (PTPN1 (human)): -0.328 z-score
- binding signal (PTPN2 (human)): -0.318 z-score
- binding signal (PVALB (human)): -0.326 z-score
- binding signal (PVRL3 (human)): -0.307 z-score
- binding signal (PXN (human)): -0.33 z-score
- binding signal (PYCR1 (human)): -0.339 z-score
- binding signal (Paladin (human)): -0.317 z-score
- binding signal [1]: -0.322 z-score and -0.334 z-score
- binding signal [2]: -0.329 z-score
- binding signal [3]: 3.95 z-score
- binding signal [4]: -0.325 z-score
- binding signal [5]: -0.336 z-score
- binding signal [6]: -0.334 z-score
- binding signal [7]: -0.335 z-score
- binding signal [8]: -0.327 z-score
